Measurements published in article PMC4760221, “Phosphorylation Regulates the Endocytic Function of the Yeast Dynamin-Related Protein Vps1” (Molecular and Cellular Biology, 2015).
Positions count from the first letter of the chain named. Results are given in words; binding and its absence hold for the method and conditions named. Some binding calls cover weakened binding; strength is not graded here.

Legend:
[1] = target: T1, Gal4BD-Vps1(276-704) (S. cerevisiae) (UniProt P21576); assay: two-hybrid; Vps1(276-704) as Gal4 binding domain fusion, Rvs167 fused to the Gal4 activation domain, strain pJ69-2A; growth on medium lacking histidine, leucine and tryptophan; controls with empty plasmids
T1 sequence: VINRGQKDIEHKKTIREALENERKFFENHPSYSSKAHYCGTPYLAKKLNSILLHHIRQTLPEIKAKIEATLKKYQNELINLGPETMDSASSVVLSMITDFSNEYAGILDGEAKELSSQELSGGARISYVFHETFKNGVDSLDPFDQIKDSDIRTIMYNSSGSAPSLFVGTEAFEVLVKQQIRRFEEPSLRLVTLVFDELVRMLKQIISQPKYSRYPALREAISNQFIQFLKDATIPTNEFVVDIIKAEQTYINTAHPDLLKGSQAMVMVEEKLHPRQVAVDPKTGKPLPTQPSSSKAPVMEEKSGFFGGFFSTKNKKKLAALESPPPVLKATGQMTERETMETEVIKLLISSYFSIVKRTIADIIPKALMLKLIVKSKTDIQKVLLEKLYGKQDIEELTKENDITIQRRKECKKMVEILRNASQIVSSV

[2] = target: T2, Gal4BD-Vps1(276-704) S599D (S. cerevisiae) (UniProt P21576); assay: as above
T2 sequence: T1 sequence with S324D

binding [1]: binds
binding [2]: binds
Substance: GalAD-Rvs167 (from UniProt P39743 1-482)
